Source: publication PMC10924143
Results are given in words; binding and its absence hold for the method and conditions named. In cells and extracts the contact can be indirect. A yes stands for co-enrichment or nearness to the bait. Other partners may have been found. For some of these results: Where a sequence is shown, tags or fusion partners need not be part of it.

The chains behind the UniProt entries cited, without tags or fusion partners.
UniProt Q9UH03: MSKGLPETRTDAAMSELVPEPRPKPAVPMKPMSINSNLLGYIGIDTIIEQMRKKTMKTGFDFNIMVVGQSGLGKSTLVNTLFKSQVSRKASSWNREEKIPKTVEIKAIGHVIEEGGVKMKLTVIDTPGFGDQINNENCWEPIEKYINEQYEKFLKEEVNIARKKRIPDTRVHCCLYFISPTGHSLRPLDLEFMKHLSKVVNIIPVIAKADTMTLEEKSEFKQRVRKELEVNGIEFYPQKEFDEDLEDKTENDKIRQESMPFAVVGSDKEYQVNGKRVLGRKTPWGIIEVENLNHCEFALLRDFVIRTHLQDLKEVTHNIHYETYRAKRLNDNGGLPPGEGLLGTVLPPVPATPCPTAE

T1: EGFP-tagged SEPT6 (co-expressed with inactive RID-CA) (human) (UniProt Q14141)
T1 sequence: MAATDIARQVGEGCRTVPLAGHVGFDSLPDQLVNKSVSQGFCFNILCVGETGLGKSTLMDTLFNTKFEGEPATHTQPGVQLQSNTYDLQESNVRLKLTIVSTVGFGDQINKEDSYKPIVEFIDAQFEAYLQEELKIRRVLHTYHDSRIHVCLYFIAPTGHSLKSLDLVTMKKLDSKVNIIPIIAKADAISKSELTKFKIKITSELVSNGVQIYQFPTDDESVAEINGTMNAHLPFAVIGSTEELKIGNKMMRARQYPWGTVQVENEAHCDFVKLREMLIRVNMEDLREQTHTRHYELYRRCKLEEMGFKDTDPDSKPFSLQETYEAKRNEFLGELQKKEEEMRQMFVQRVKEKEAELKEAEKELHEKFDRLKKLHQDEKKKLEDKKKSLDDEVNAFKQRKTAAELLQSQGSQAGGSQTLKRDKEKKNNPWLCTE

T2: EGFP-tagged SEPT6 (co-expressed with inactive RID-CA) (human), Q14141
T2 chain: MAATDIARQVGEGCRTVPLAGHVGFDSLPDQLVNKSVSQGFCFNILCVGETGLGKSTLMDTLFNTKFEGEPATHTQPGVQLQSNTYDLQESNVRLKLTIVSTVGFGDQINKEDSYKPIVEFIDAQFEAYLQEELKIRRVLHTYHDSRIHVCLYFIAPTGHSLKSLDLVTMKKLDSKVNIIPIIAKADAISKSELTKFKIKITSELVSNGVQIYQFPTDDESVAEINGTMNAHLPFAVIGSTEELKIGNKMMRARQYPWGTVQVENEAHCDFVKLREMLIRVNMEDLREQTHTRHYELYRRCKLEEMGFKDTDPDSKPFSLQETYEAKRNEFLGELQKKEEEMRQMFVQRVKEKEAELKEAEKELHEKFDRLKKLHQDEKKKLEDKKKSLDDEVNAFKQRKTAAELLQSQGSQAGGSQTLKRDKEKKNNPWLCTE


Columns and labels:
Assay in all cases: affinity purification with mass spectrometry; HEK293T co-transfected with EGFP-tagged SEPT6 or SEPT6-4KR and RID-WT or RID-CA for 20 h; lysis in 1% Triton X-100, 150 mM NaCl, 50 mM Tris-HCl pH 7.4; anti-EGFP nanobody agarose beads; in-gel digestion; label-free quantification against vector control, three biological replicates
[1] = target: T1, EGFP-tagged SEPT6 (co-expressed with inactive RID-CA) (human)
[2] = target: EGFP-tagged SEPT6 quadruple mutant SEPT6-4KR (co-expressed with RID-WT) (human) (UniProt Q14141)
[3] = target: T2, EGFP-tagged SEPT6 (co-expressed with …); conditions: remark: other sources report otherwise

| Molecule | binding [1] | binding [2] | binding [3] |
| --- | --- | --- | --- |
| endogenous SEPT3 (from UniProt Q9UH03 1-358) | binds | binds |  |
| endogenous SEPT5 (protein, UniProt Q99719 1-369) MSTGLRYKSKLATPEDKQDIDKQYVGFATLPNQVHRKSVKKGFDFTLMVAGESGLGKSTLVHSLFLTDLYKDRKLLSAEERISQTVEILKHTVDIEEKGVKLKLTIVDTPGFGDAVNNTECWKPITDYVDQQFEQYFRDESGLNRKNIQDNRVHCCLYFISPFGHGLRPVDVGFMKALHEKVNIVPLIAKADCLVPSEIRKLKERIREEIDKFGIHVYQFPECDSDEDEDFKQQDRELKESAPFAVIGSNTVVEAKGQRVRGRLYPWGIVEVENQAHCDFVKLRNMLIRTHMHDLKDVTCDVHYENYRAHCIQQMTSKLTQDSRMESPIPILPLPTPDAETEKLIRMKDEELRRMQEMLQRMKQQMQDQ | binds | binds |  |
| endogenous SEPT8, Q92599 1-483 (protein) MAATDLERFSNAEPEPRSLSLGGHVGFDSLPDQLVSKSVTQGFSFNILCVGETGIGKSTLMNTLFNTTFETEEASHHEACVRLRPQTYDLQESNVQLKLTIVDAVGFGDQINKDESYRPIVDYIDAQFENYLQEELKIRRSLFDYHDTRIHVCLYFITPTGHSLKSLDLVTMKKLDSKVNIIPIIAKADTISKSELHKFKIKIMGELVSNGVQIYQFPTDDEAVAEINAVMNAHLPFAVVGSTEEVKVGNKLVRARQYPWGVVQVENENHCDFVKLREMLIRVNMEDLREQTHSRHYELYRRCKLEEMGFQDSDGDSQPFSLQETYEAKRKEFLSELQRKEEEMRQMFVNKVKETELELKEKERELHEKFEHLKRVHQEEKRKVEEKRRELEEETNAFNRRKAAVEALQSQALHATSQQPLRKDKDKKNRSDIGAHQPGMSLSSSKVMMTKASVEPLNCSSWWPAIQCCSCLVRDATWREGFL |  |  | binds |
| endogenous SEPT10, Q9P0V9 1-454 (protein) MASSEVARHLLFQSHMATKTTCMSSQGSDDEQIKRENIRSLTMSGHVGFESLPDQLVNRSIQQGFCFNILCVGETGIGKSTLIDTLFNTNFEDYESSHFCPNVKLKAQTYELQESNVQLKLTIVNTVGFGDQINKEESYQPIVDYIDAQFEAYLQEELKIKRSLFTYHDSRIHVCLYFISPTGHSLKTLDLLTMKNLDSKVNIIPVIAKADTVSKTELQKFKIKLMSELVSNGVQIYQFPTDDDTIAKVNAAMNGQLPFAVVGSMDEVKVGNKMVKARQYPWGVVQVENENHCDFVKLREMLICTNMEDLREQTHTRHYELYRRCKLEEMGFTDVGPENKPVSVQETYEAKRHEFHGERQRKEEEMKQMFVQRVKEKEAILKEAERELQAKFEHLKRLHQEERMKLEEKRRLLEEEIIAFSKKKATSEIFHSQSFLATGSNLRKDKDRKNSNFL |  |  | binds |
| endogenous SEPT11 (protein, UniProt Q9NVA2 1-429) MAVAVGRPSNEELRNLSLSGHVGFDSLPDQLVNKSTSQGFCFNILCVGETGIGKSTLMDTLFNTKFESDPATHNEPGVRLKARSYELQESNVRLKLTIVDTVGFGDQINKDDSYKPIVEYIDAQFEAYLQEELKIKRSLFNYHDTRIHACLYFIAPTGHSLKSLDLVTMKKLDSKVNIIPIIAKADTIAKNELHKFKSKIMSELVSNGVQIYQFPTDEETVAEINATMSVHLPFAVVGSTEEVKIGNKMAKARQYPWGVVQVENENHCDFVKLREMLIRVNMEDLREQTHTRHYELYRRCKLEEMGFKDTDPDSKPFSLQETYEAKRNEFLGELQKKEEEMRQMFVMRVKEKEAELKEAEKELHEKFDLLKRTHQEEKKKVEDKKKELEEEVNNFQKKKAAAQLLQSQAQQSGAQQTKKDKDKKNASFT | binds | binds |  |
| endogenous SEPT8 (protein, UniProt Q92599 1-483) MAATDLERFSNAEPEPRSLSLGGHVGFDSLPDQLVSKSVTQGFSFNILCVGETGIGKSTLMNTLFNTTFETEEASHHEACVRLRPQTYDLQESNVQLKLTIVDAVGFGDQINKDESYRPIVDYIDAQFENYLQEELKIRRSLFDYHDTRIHVCLYFITPTGHSLKSLDLVTMKKLDSKVNIIPIIAKADTISKSELHKFKIKIMGELVSNGVQIYQFPTDDEAVAEINAVMNAHLPFAVVGSTEEVKVGNKLVRARQYPWGVVQVENENHCDFVKLREMLIRVNMEDLREQTHSRHYELYRRCKLEEMGFQDSDGDSQPFSLQETYEAKRKEFLSELQRKEEEMRQMFVNKVKETELELKEKERELHEKFEHLKRVHQEEKRKVEEKRRELEEETNAFNRRKAAVEALQSQALHATSQQPLRKDKDKKNRSDIGAHQPGMSLSSSKVMMTKASVEPLNCSSWWPAIQCCSCLVRDATWREGFL |  | binds |  |
| endogenous SEPT10 (protein, UniProt Q9P0V9 1-454) MASSEVARHLLFQSHMATKTTCMSSQGSDDEQIKRENIRSLTMSGHVGFESLPDQLVNRSIQQGFCFNILCVGETGIGKSTLIDTLFNTNFEDYESSHFCPNVKLKAQTYELQESNVQLKLTIVNTVGFGDQINKEESYQPIVDYIDAQFEAYLQEELKIKRSLFTYHDSRIHVCLYFISPTGHSLKTLDLLTMKNLDSKVNIIPVIAKADTVSKTELQKFKIKLMSELVSNGVQIYQFPTDDDTIAKVNAAMNGQLPFAVVGSMDEVKVGNKMVKARQYPWGVVQVENENHCDFVKLREMLICTNMEDLREQTHTRHYELYRRCKLEEMGFTDVGPENKPVSVQETYEAKRHEFHGERQRKEEEMKQMFVQRVKEKEAILKEAERELQAKFEHLKRLHQEERMKLEEKRRLLEEEIIAFSKKKATSEIFHSQSFLATGSNLRKDKDRKNSNFL |  | binds |  |
